For eleven molecules, binding results are on record in article PMC7094869.

Sequences of proteins named here, by UniProt entry; tags and fusion partners are left off.
UniProt Q27268: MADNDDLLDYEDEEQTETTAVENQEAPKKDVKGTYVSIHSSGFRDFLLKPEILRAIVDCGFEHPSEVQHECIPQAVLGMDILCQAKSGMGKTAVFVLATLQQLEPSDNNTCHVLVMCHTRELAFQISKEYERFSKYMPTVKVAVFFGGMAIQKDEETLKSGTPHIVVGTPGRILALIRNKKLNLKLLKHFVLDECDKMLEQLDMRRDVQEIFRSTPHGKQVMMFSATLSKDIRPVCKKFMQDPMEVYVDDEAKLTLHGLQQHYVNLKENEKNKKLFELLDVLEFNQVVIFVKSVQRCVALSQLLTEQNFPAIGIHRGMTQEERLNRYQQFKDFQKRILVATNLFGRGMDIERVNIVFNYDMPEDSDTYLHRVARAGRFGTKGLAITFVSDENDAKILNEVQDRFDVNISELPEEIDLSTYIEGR
UniProt P25823: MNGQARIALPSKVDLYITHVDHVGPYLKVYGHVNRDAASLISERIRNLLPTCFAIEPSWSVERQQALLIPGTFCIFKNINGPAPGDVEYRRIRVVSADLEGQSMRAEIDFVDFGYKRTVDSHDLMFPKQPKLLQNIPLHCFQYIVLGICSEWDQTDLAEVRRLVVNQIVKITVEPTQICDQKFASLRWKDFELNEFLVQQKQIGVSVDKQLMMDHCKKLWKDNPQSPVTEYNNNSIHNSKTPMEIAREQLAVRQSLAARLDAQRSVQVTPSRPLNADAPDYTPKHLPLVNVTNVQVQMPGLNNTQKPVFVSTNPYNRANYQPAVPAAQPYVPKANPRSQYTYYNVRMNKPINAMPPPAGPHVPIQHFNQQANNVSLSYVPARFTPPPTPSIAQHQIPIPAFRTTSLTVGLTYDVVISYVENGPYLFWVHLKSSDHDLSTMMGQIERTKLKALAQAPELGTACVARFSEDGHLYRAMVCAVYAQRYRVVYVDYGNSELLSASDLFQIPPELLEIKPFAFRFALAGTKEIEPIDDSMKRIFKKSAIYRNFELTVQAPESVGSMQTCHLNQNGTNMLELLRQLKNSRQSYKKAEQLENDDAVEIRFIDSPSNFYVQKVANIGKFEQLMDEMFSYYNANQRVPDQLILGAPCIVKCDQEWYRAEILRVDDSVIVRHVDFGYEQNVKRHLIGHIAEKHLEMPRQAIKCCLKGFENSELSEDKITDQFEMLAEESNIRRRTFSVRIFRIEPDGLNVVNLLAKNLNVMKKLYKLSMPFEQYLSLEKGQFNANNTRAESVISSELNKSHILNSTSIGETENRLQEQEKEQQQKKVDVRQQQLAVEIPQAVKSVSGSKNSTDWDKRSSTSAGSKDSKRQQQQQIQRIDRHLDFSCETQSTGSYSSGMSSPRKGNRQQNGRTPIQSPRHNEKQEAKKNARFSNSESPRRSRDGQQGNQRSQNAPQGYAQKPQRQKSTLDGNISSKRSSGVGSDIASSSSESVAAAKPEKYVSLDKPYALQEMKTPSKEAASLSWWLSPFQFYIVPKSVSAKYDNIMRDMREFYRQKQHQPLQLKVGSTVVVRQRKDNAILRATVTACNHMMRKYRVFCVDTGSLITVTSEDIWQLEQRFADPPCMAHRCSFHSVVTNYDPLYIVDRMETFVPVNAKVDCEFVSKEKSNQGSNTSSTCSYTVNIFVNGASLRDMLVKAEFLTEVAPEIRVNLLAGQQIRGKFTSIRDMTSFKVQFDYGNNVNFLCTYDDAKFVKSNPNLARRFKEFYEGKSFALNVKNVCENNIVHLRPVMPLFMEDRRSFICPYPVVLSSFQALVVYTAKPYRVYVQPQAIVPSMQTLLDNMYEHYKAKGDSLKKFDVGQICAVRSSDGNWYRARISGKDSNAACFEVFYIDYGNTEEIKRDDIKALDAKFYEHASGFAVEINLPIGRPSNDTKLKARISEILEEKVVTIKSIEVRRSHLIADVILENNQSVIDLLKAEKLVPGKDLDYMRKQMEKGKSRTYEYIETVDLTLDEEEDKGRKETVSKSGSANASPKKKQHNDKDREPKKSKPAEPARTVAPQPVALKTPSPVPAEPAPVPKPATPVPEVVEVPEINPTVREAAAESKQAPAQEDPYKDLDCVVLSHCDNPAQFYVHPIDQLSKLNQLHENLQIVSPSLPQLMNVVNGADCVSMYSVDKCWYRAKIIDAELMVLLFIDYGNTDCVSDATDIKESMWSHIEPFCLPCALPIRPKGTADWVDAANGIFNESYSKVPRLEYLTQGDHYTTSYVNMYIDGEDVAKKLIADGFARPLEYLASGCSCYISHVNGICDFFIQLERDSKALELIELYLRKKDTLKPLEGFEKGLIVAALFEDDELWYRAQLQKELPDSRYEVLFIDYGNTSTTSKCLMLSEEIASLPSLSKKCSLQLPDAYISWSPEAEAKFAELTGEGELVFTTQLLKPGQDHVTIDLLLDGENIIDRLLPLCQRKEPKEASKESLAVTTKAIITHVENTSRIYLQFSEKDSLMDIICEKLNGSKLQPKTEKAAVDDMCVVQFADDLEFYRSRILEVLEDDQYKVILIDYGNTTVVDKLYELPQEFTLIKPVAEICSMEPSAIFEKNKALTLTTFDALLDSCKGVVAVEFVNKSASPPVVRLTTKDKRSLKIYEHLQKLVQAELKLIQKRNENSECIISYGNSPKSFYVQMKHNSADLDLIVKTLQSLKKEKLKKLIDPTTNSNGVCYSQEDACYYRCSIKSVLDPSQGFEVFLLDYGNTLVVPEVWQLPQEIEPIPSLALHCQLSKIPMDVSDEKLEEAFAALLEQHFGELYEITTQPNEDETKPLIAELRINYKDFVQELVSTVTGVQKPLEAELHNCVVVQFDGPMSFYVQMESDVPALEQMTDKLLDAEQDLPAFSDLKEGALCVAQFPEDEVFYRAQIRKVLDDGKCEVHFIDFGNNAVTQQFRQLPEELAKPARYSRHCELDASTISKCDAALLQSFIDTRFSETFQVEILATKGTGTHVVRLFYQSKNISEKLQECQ

The target of test [1] is T1, Klp10A (Drosophila melanogaster (endogenous in testes)) (UniProt Q960Z0).
T1 sequence: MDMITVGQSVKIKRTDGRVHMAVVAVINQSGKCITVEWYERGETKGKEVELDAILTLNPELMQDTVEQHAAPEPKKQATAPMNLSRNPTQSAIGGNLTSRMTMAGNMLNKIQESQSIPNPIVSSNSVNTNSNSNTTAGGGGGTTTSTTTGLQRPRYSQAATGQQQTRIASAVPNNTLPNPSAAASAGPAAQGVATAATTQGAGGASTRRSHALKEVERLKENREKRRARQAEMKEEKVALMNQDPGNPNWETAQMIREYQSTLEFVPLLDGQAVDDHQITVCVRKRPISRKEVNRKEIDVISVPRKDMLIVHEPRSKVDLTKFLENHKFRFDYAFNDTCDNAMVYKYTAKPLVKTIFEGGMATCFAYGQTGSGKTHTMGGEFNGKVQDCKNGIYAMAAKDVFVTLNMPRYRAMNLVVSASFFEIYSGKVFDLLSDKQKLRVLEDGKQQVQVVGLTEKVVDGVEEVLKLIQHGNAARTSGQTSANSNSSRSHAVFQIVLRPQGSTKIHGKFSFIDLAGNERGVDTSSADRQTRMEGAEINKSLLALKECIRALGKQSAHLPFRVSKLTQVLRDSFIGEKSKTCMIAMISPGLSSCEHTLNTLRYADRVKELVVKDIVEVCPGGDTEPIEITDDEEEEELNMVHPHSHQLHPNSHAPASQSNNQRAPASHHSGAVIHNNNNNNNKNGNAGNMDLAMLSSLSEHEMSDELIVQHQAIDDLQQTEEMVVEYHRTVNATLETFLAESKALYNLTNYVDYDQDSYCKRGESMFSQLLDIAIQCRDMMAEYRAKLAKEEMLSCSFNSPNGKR
In words: affinity purification with mass spectrometry; guinea-pig anti-Klp10A on Protein A-Dynabeads; 250 pairs of nos-gal4>UAS-upd testes; 10 mM Tris-HCl pH 7.5, 150 mM NaCl, 0.5 mM EDTA, 0.1% NP40; control pre-immune IgG; two experiments; LC/MS/MS.

Test [2] deals with T1, Klp10A (Drosophila melanogaster (endogenous in testes)). In words: affinity purification with mass spectrometry; anti-Klp10A pull down from Dpp testis (nos>dpp, SG tumor); two experiments; LC/MS/MS.
Test [3] has as its target T2, GFP-Klp10A (Drosophila melanogaster) (UniProt Q960Z0).
T2 sequence: T1 sequence
In words: affinity purification with mass spectrometry; GFP-Trap agarose beads on GFP-Klp10A; 1500 pairs of nos-gal4>UAS-upd, UAS-gfp-klp10A testes; 10 mM Tris-HCl pH 7.5, 150 mM NaCl, 0.5 mM EDTA, 0.1% NP40; control GFP from Upd testis; LC-MS/MS.

These are yes or no findings as the source states them, for the method shown. Binding seen in cells or lysates may run through a third protein. These calls come from enrichment with a bait or labelling near it, and not all partners need be listed. For part of these data: Where a sequence is shown, tags or fusion partners need not be part of it.

UAP56 (from UniProt Q27268 1-424): the binding entry in test [1] and in test [2] was “binds” in each case.

Regarding Hsp90, the binding result in test [1] and in test [2] was “binds” in each case. Consider Tapas, for which the binding entry in test [1] and in test [2] was “binds” throughout. On to Qin, for which the binding result in test [1] and in test [2] was “binds” each time.

Turning to Tudor (from UniProt P25823 1-2515), the binding entry in test [1], in test [3] and in test [2] was “binds” each time.

B1: Shutdown (protein, UniProt Q9W1I9 1-455)
chain: MEENFEPYTPQLLKNPLSYSDLVKKGVEFEVDNSQQNHARDLGLDSDSDSDYEDALDVDGEELRSPWTYSFDELRALMSEIDENIYKRITRTGHVDREAVPNKARVSVRYSGYWEGETAPFDSSLLRGSKFVFETGQGTVVEGLEVAVRSMRPYEQAEFIISYKLLFGELGCPPRIKPKADALFKVEVIDYSLIGDAKGIDAIPQEDRDKFCVVYPKAVDLHLHGKDSVKLGRYQSAATAFERAVSSLNYCRMANDEEERKQTELLTTLNQNLMIVYNKMNKPKRACIMMKALRHLTMGNPSCKALFQEGRALAALGEYNLARNAYLQAQAKQPANKEISDEIISMNKRISKYEEASRDIWARAFSLKNSKSDVRKTPAQLEKEAKEQDFNDKMEDLIRRFKNTSDQQVSFSRKSYSNAQFDATCKLAKEHNLKLTLSPIQEDVLTLSKPDVKFA
For B1, in test [3], the binding entry is recorded as “binds”.

B2: Krimper (protein, UniProt A1ZAC4 1-746)
chain: MNLEDISMIMKLFDSNMHKLQGNLRSYQTEMHQIHKELTEKLSHADLLYRSLIPLHDHLVASLSEVNAHVMKLNVQLHINRQSVRLGDYEYYEKSIDNPYSSIRSGLQAIEKPGCAEAICQSSKPAFVECLPSSTSEEVPVVAVQEASSTNQLDAISVVNENLSEERDATPQPLAVSKNMEETMPSNPFHEQLEGSLEEIPVGSKIVVETEKANNPVRSEASAPATSDNQSLLAAKQGTQTIGTGICNKISKSTINMPNNWQLENPTEVTAASIEKVNKLPKSPRNRFLLPPKGGTETTRRDIYNQILKDMAAFPENTIVTAVLASVDVTDNCAYVAKWDESSDRIKKVLQRQLPLQELDQLPDYGDIFAVLDSINNIITRITINSSSAGGGYDAYLIDFGEHIHFDGNETIFKLPDDIKRLPAQAIRCDLINCDIANMHCFVNTYIKIRVHENNNSTLVAEPVIDRLSRPTKTNTTKYPAGITEDDMAMLNEIDESTSDPLKAVLGFRPKDEQRICRHYDPKLNGCFKGNNCRFAHEPFAPNGATKDVELARALPETIFDTTVHFEIGSIVGILITFINGPTEVYGQFLDGSPPLVWDKKDVPENKRTFKSKPRLLDIVLALYSDGCFYRAQIIDEFPSEYMIFYVDYGNTEFVPLSCLAPCENVDSFKPHRVFSFHIEGIVRSKNLTHQKTIECIEYLKSKLLNTEMNVHLVQRLPDGFLIRFLDDWKYIPEQLLQRNYAQVSQ
B2: the binding entry in test [3] is “binds”.

B3: Argonaute 3 (protein, UniProt Q7PLK0 1-867)
chain: MSGRGNLLSLFNKNAGNMGKSISSKDHEIDSGLDFNNSESSGERLLSSHNIETDLITTLQHVNISVGRGRARLIDTLKTDDHTSNQFITSESKENITKKTKGPESEAIASENGLFFPDLIYGSKGSSVNIYCNYLKLTTDESKGVFNYEVRFFPPIDSVHLRIKYLNDHKDKLGGTKTFDGNTLYLPILLPNKMTVFISKAEDVELQIRILYKKKEEMRNCTQLYNILFDRVMKVLNYVKFDRKQFDPSRPKIIPLAKLEVWPGYVTAVDEYKGGLMLCCDVSHRILCQKTVLEMLVDLYQQNVEHYQESARKMLVGNIVLTRYNNRTYKINDICFDQNPTCQFEIKTGCTSYVEYYKQYHNINIKDVNQPLIYSIKKSRGIPAERENLQFCLIPELCYLTGLRDEVRSDNKLMREIATFTRVSPNQRQMALNKFYENVSNTPAAQEILNSWGLSLTNNSNKISGRQMDIEQIYFSKISVSAGRSAEFSKHAVTNEMLKVVHLSKWIIIHLRNYRQAATSLLDNMKQACESLGMNISNPTMISLDHDRIDAYIQALRRNITMNTQMVVCICHNRRDDRYAAIKKICCSEIPIPSQVINAKTLQNDLKIRSVVQKIVLQMNCKLGGSLWTVKIPFKNVMICGIDSYHDPSNRGNSVAAFVASINSSYSQWYSKAVVQTKREEIVNGLSASFEIALKMYRKRNGKLPTNIIIYRDGIGDGQLYTCLNYEIPQFEMVCGNRIKISYIVVQKRINTRIFSGSGIHLENPLPGTVVDQHITKSNMYDFFLVSQLVRQGTVTPTHYVVLRDDCNYGPDIIQKLSYKLCFLYYNWAGTVRIPACCMYAHKLAYLIGQSIQRDVAEALSEKLFYL
On to B3, for which the binding entry in test [1] and in test [2] was “binds” throughout.

B4: Maelstrom (protein, UniProt Q9VNS0 1-459)
chain: MAPKKHSGFMMFVNEWRNRNAEGRRMTLAQAVSHCGTIWEKMNTQQRGPYNSGGKDANVAQRAKRESSNGHGQVDKAQREATESLMDMKRTIERLVLNAKMSHDLENAKFVFVAFNYFTKALTTDVYVPAEFAACEYSLKEGIRSIYSTMIDPGQIIFGQGSDALLHSSTTHDLPLPPNALGEKNMTKLYRNIVDYLSKCQGKGKTLVVFTPAENITMVKSCFRYLECDDDFRDGGEKIQVFDIQYLLFILKKEVMNVADLNDEKINKFATDAFFKKDFFEFTAGIACQYHEDNDRTKYCTQSMVTRWAYTFTDFMCGDLAITVQPGKHIPAQTKPNYLIISSYASSLDHESSFDSFYSLPGSGVKKESQPEACSLSSSRLSVASSSYKPIDHTSFAANLNEVSEFPSLGMRNSSKHHGIAASAQREWNARNLPTHSRLIRKVSDNDFSVNGADGKLKK
With B4, the binding entry in test [2] is “binds”.

B5: Vrento (protein, UniProt Q9VCU7 1-691)
chain: MESESSQDDWSAFDPMSREYYDQVGNRYTNESGQKLIMEAPLPPKDEKEQRATRQAKYPYLVVPKSSPYVTEKMLINFFGRALIKEMEFRRLSRVYFVYFENIASLETAQQRVQRYPNLIKCITGRPQKEREITSDPVTSTEPMPTPGPAISATERTPVNHNREVPISTGGQNHPEFFRPPLVTKDDYKRGSLLATNDPIQRYLNVKYEFALERHDIYKLKDETRIPQVVLHFRSGRTIPLSTVAVTEEDKTKSLLEDGVSKCVVCQNWTDTFCKLCKMPFCNASCFADVAEQHKQACGKGEILNLDEKVGRKYPKPGLPPSGSKVRITAFEQTNVVYVRSADIQIDIAYYTVLTEVMMLGKDASKLQSTPVCGQIVLYKFEGHMSRAMVLNVDNIKEIYVVFIDFGSVEVTQLERLYECSSYLAGLTCYPVAVKLRGVPRRFVGPNIREVMYELDQSLVFNIKYSSREYDTSKGMQVVVMTEIDINRSLNRLFKTILTPVEPSVSDLGYKEDCLPYIPLHCGKNINVVVMDNTFIQCGFIYCTSIDLAYEVTKMQRDIQEYGEKIAKCATYAPPINELCIAKYEGKWRRGLSVELVGDGYPSILFIDYGNIVPTHVTDIRPYPPQFIFPIMTTQLDLIGVPEKPTDEQIKWLDKNYPIGSVITCSEITFDEETNSYSTRIEKLQEFLSLD
Regarding B5, in test [3], the binding entry was “binds”.

B6: Papi (protein, UniProt Q9VQ91 1-576)
chain: MLRNTPFGATPTYKLLLGFGLCSLGGAMLYAYFKTRNDEEEADSGGQRPASGIRGQTEEQKPQKEVCLKIVVDNEHVPLIMGRGGSNIKLIEEKTLAKIRLRDKDSGHKFCDISGVPDAVKAARALLIKEIERAPVVKVELQVPQRLASKINGRGGELLQEIRSSSLAKLNIDLNGRNGKAKITIIGNQKQVNIARKMLDDQIEEDEELVRSMEEVEQRREPRRSPTNSIASSMYSSQTSLSSHTQPRDKLMASKGEGKPMEVYVSAVASPTKFWVQLIGPQSKKLDSMVQEMTSYYSSAENRAKHVLTAPYVGQIVAAVFKFDEKWYRAEIVDIMPNQYNPKEQVIDLYFVDYGDSEYISPADICELRTDFLTLRFQAVECFLANVKSTIQTEPITWPKSSIAKFEELTEVAHWRKLIARVVTYKERPRATTAVSAAAKEGTPLPGVELFDPADNSELNIADLMITQGFALPLDDSYPVRSRSSTPSSNSDSTIEELCVSNPVTPLTPHSPMSMSIDVDSITQAENEHLAQQLQHLQHKLNGNDIKNINPAKLTATDLENGNNNNASTTNGASAH
On to B6, for which, in test [1], the binding result was “binds”.
